Measurements from patent publication US20050152903A1.
These are yes or no findings as the source states them, for the method shown. Some binding calls cover weakened binding; strength is not graded here.

Molecular target: A box of HMGB1 (human (A box stated to be the same for human, rat and mouse))
Test: ELISA, Western blot analysis (FIG. 7)

B1: 10D4 HMGB1 mAb (antibody, V domains shown)
VH: EVQLQQSGTVLARPGASVKMSCKASGYSFTSYWMHWVKQRPGQGLEWIGAIYPGNRDASYNQKFKGKAKLTAVTSASTAYLELSSLTNEDSAVYYCTRDYGSFYFDYWGQGTTLTVSS
VL: DIQMTQTTSSLSASLGDRVTISCRASQDISNYLNWYQQKPDGTVKLLIYYTSRLHSGVPSRFSGSGSGTDYSLTISNLEQEDIATYFCQQGNTLPWTFGGGTKLEIK
  binding: binds
